From PubChem BioAssay AID1487 (National Center for Advancing Translational Sciences (NCATS), 2009)
About 25 (0.01%) of roughly 200,000 compounds were called active. This list was built around the results that the source calls inconclusive (neither active nor inactive); the mix of calls is not that of the screen. Calls follow the shape of the dose curve; as a rule, active = well fitted inhibition curve with a large enough effect in the signal ratio, with a control signal flat (not every such curve was filed as active); inconclusive = small, poorly fitted or top-dose-only effect, or effect the other way, or a change in a side signal; inactive = flat fitted curve, though single readings scatter; the % refers to the signal ratio. Where the call is inconclusive, the potency comes from a doubtful curve fit.
% is scaled to controls: 0 for no effect and ±100 for the full control effect; potency is read from the fitted curve at half-maximal effect.

Assay: qHTS Assay for Modulators of Lamin A Splicing
Details: HeLa LMNA splicing GFP/RFP minigene ratio, 48 h; ratio change, negative = inhibition: at 46.1 µM (top of the series) unless noted
How it was run: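 Read-out is the ratio of GFP to DsRed2 object intensity, acquired by 488 nm laser-scanning cytometry on HeLa lamin A-EGFP minigene reporter cells. Compound incubation 48 hrs at 37 °C in Opti-MEM with 2% FBS; DMSO 0.5% final.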
For `Cc1ccc(O)c(-c2cc(C(F)(F)F)[nH]n2)c1`, the “ratio change, negative = inhibition” value was inactive: 5.45%.
For `O=C(NCc1ccccc1Cl)c1ccc(S(=O)(=O)Nc2cccc(C(F)(F)F)c2)cc1`, the ratio change, negative = inhibition was inconclusive: -29.7%.
For `COC(=O)CC1=NN(c2nc3ccccc3s2)C(=O)/C1=C/N(C)C`, the “ratio change, negative = inhibition” value was inactive: -10.7% [at 46 µM].
With `C=CCNC(=S)N/N=C/c1ccc(C(C)(C)C)cc1` the Potency was inconclusive: 35.5 µM [rising, single point].
With `N#C/C(=C\c1ccc(N2CCOCC2)o1)C(=O)Nc1ccc(O)cc1` the ratio change, negative = inhibition was inconclusive: 10.2% [at 46 µM].
For `CCn1c(=Nc2ccc(N3CCOCC3)cc2)ccc2ccccc21`, the “ratio change, negative = inhibition” value was inactive: -6.54%.
In the case of `CCOC(=O)c1c(C)oc2nc(C)nc(NCc3ccc(C)cc3)c12`, the ratio change, negative = inhibition is reported as inconclusive: -8.36% [at 46 µM].
In the case of `COc1ccc(OC(=O)c2ccncc2)cc1`, the Potency is reported as inconclusive: 17.8 µM [inhibitor, single point].
With `O=C(Nc1ccc(N2CCC(N3CCCCC3)CC2)c(C(=O)O)c1)c1ccccc1` the ratio change, negative = inhibition was inconclusive: -9.09% [at 46 µM].
In the case of `O=C(COc1ccccc1)N(Cc1cccnc1)c1nc2ccc(Cl)cc2s1`, the ratio change, negative = inhibition is reported as inconclusive: 35.8% [at 46 µM].
In the case of `Cc1cc2nc3c(=O)[nH]c(=O)[nH]c3nc2c([N+](=O)[O-])c1N`, the “ratio change, negative = inhibition” value is reported as inactive: -2.56% [at 46 µM].
In the case of `O=c1c(O)c(-c2ccccc2)oc2ccc3occc3c12`, the ratio change, negative = inhibition is reported as inconclusive: 34.8%.
For `Cc1nnsc1C(=O)N/N=C/c1ccccc1`, the ratio change, negative = inhibition was inconclusive: -13.5%.
With `CCCOc1ccc(NC(=O)CC2C(=O)N(C)C(=S)N2Cc2cccs2)cc1` (stereo unspecified) the Potency was inconclusive: 35.5 µM [falling, single point].
In the case of `COc1ccc(CNC(=O)CN(c2ccccc2OC)S(=O)(=O)c2ccc(C)cc2)cc1`, the ratio change, negative = inhibition is reported as inconclusive: -12.6% [at 46 µM].
For `O=c1ccnc(SCCC(F)=C(F)F)[nH]1`, the Potency was inconclusive: 6.31 µM [activator, partial curve].
For `CN1CC(=O)N(CC(=O)N2N=C(c3ccc(Cl)cc3)CC2c2ccco2)C1=O` (stereo unspecified), the ratio change, negative = inhibition was inconclusive: 5.39% [at 9.22 µM].
For `O=[N+]([O-])c1c(NCCO)cc(N2CCCCC2)c2nonc12`, the “ratio change, negative = inhibition” value was inactive: -8.46% [at 46 µM].
In the case of `O=[N+]([O-])c1cc(C(F)(F)F)ccc1N1CCN(S(=O)(=O)c2ccc3c(c2)CCCC3)CC1`, the Potency is reported as inconclusive: 3.16 µM [fluorescent, partial curve].
In the case of `COc1ccc(-c2[nH]c3ccccc3c2SCCNC(=O)c2ccccc2)cc1`, the ratio change, negative = inhibition is reported as inconclusive: -38.5%.
In the case of `COc1cc(CNc2ccc3[nH]c(=O)[nH]c3c2)ccc1OCc1ccccc1F`, the ratio change, negative = inhibition is reported as inconclusive: -16.5% [at 46 µM].
For `O=C(N/N=C/c1ccccc1O)C1SCCCS1`, the ratio change, negative = inhibition was inconclusive: -24.3% [at 46 µM].
With `C=CCn1c(=S)[nH]c2scc(-c3ccc(C)o3)c2c1=O` the “ratio change, negative = inhibition” value was inactive: -12.3% [at 46 µM].
With `COc1ccc(C(=O)CSc2nnc(Cc3ccccc3)o2)cc1` the ratio change, negative = inhibition was inconclusive: -12.1%.
In the case of `COc1ccc(C=O)cc1COc1c(F)c(F)cc(F)c1F`, the “ratio change, negative = inhibition” value is reported as inactive: 1.93%.
With `COc1ccc(C=C(c2nc3ccccc3s2)c2nc3ccccc3s2)cc1O` the ratio change, negative = inhibition was inconclusive: -6.22%.
For `CN1CCN(S(=O)(=O)c2cc([N+](=O)[O-])ccc2Cl)CC1`, the ratio change, negative = inhibition was inconclusive: -14.4% [at 46 µM].
With `CCOC(=O)c1c(S(=O)(=O)NCC(=O)Nc2cccc(CC)c2)c(C)n(C)c1C` the “ratio change, negative = inhibition” value was inactive: 8.7% [at 46 µM].
With `Cc1cc(C)c(C#N)c(SCC(=O)c2ccccc2)n1` the ratio change, negative = inhibition was inconclusive: -30.7% [at 46 µM].
In the case of `CCCCn1c(N)c(N(CCC(C)C)C(=O)CSc2nnc(Nc3ccccc3)s2)c(=O)[nH]c1=O`, the ratio change, negative = inhibition is reported as inconclusive: 3.29% [at 46 µM].
In the case of `CCOc1ccc(CNC(=O)C2CCCN(S(=O)(=O)c3ccc4c(c3)CCCC(=O)N4)C2)cc1` (stereo unspecified), the ratio change, negative = inhibition is reported as inconclusive: -14.5% [at 46 µM].
For `COc1ccc(CNc2ccnc(-c3ccc4c(c3)OCO4)n2)c(OC)c1`, the ratio change, negative = inhibition was inconclusive: -19.6%.
In the case of `O=C(CSc1nc2ccccc2o1)N1CCN(C(=O)c2ccco2)CC1`, the “ratio change, negative = inhibition” value is reported as inactive: -10.2%.
With `Cc1noc(NS(=O)(=O)c2ccc(NC(=O)CSc3nc4ccccc4[nH]3)cc2)c1C` the “ratio change, negative = inhibition” value was inactive: 2.65%.
With `COc1ccc(/C=C2\N=C(c3c(-c4ccccc4)noc3C)OC2=O)cc1OC` the “ratio change, negative = inhibition” value was inactive: -0.143%.
For `Cc1cc(N2CCCC2)n2nc(C)nc2n1`, the “ratio change, negative = inhibition” value was inactive: 6.48%.
With `Cc1ccc(S(=O)(=O)C(CNC(=O)C(=O)NCCc2ccccc2)c2ccco2)cc1` (stereo unspecified) the ratio change, negative = inhibition was inconclusive: -8.77% [at 46 µM].
With `O=c1c2c([nH]n1-c1ccccc1)CCCC2` the ratio change, negative = inhibition was inconclusive: 24% [at 46 µM].
For `CCn1c2c(c(=O)n3ncc(C(=O)Nc4cccc(Cl)c4C)c13)CN(Cc1ccc(OC)cc1)CC2`, the ratio change, negative = inhibition was inconclusive: -16.2% [at 46 µM].
With `Cc1ccc(-c2csc(-c3c[nH]c4ccccc34)n2)c(C)c1` the ratio change, negative = inhibition was inconclusive: -29.7%.
In the case of `COc1ccc(C(=O)/C=C/c2ccc(OC)c(CN3CCOCC3)c2)cc1`, the ratio change, negative = inhibition is reported as inconclusive: 45.4%.
For `Cc1cc(C)c2c(N)c(-c3nc4ccccc4[nH]3)sc2n1`, the “ratio change, negative = inhibition” value was inactive: -5.23%.
In the case of `Cc1ccc(NC(=O)c2ccc(-n3c(C)nnc3C)cc2)cc1F`, the ratio change, negative = inhibition is reported as inconclusive: -15.6% [at 46 µM].
With `O=C(c1ccc(Cl)cc1)c1oc2ccccc2c1CS(=O)c1ccccc1` (stereo unspecified) the ratio change, negative = inhibition was inconclusive: -27.9%.
For `CCCc1nc(SCc2cc(=O)c3ccc(C)c(C)c3[nH]2)n[nH]1`, the ratio change, negative = inhibition was inconclusive: 6.37% [at 46 µM].
With `COc1ccc(/C=N\NC(=O)c2cccc(Br)c2)c(OC)c1` the ratio change, negative = inhibition was inconclusive: -9.04% [at 46 µM].
In the case of `CC(=O)c1c(C)[nH]c(C(=O)OCC(=O)Nc2cccc(S(=O)(=O)N3CCCC3)c2)c1C`, the Potency is reported as inconclusive: 3.55 µM [falling, full curve].
With `Cc1ccc(-c2cc(C(=O)N/N=C/C(Br)=C/c3ccccc3)n[nH]2)o1` the ratio change, negative = inhibition was inconclusive: -48.8% [at 46 µM].
For `COc1ccccc1N(C)S(=O)(=O)c1ccc(C(=O)OCC(N)=O)cc1`, the ratio change, negative = inhibition was inconclusive: -11.6% [at 46 µM].
With `Cc1nc(-c2ccccc2)sc1C(=O)NN` the ratio change, negative = inhibition was inconclusive: 33% [at 46 µM].
With `C[C@H](N=C(NC#N)Nc1ccncc1)C(C)(C)C` the ratio change, negative = inhibition was inconclusive: -8.98%.
In the case of `CCCn1c(=O)c(C(=O)NCc2ccc(OC)c(OC)c2)c(O)c2ccccc21`, the ratio change, negative = inhibition is reported as inconclusive: -45.5%.
With `Cc1cccc(NC(=O)N2CCCC2C(=O)Nc2ccccc2)c1` (stereo unspecified) the ratio change, negative = inhibition was inconclusive: 0.338% [at 46 µM].
In the case of `CCCn1c2ccccc2c2cnn(CC(=O)N(CCCOC)Cc3ccco3)c(=O)c21`, the ratio change, negative = inhibition is reported as inconclusive: 8.8% [at 46 µM].
In the case of `O=C1CC(c2ccc(O)cc2)Oc2ccccc21` (stereo unspecified), the ratio change, negative = inhibition is reported as inconclusive: -14.7%.
With `CC(=O)n1nc(-c2cccc(C)c2)nc1SCC(=O)Nc1ccccc1` the “ratio change, negative = inhibition” value was inactive: -8.67%.
For `O=C(CCCN1C(=O)c2cccc3cccc(c23)C1=O)N1CCN(c2ccccn2)CC1`, the ratio change, negative = inhibition was inconclusive: -1.08%.
For `O=C(NNC(=O)c1cccnc1SCc1cccc([N+](=O)[O-])c1)c1cccnc1`, the “ratio change, negative = inhibition” value was inactive: -20.5%.
With `O=C(NCc1ccco1)c1ccc(Br)s1` the “ratio change, negative = inhibition” value was inactive: 6.11%.
For `CC(CO)NCC12CC3CC(CC(C3)C1)C2` (stereo unspecified), the ratio change, negative = inhibition was inconclusive: 11.9% [at 46 µM].
For `Fc1ccc(Nc2nc3ccccc3s2)cc1`, the ratio change, negative = inhibition was inconclusive: -5.61% [at 46 µM].
With `CC1(C)CC(=O)C(C(C2=C(O)CC(C)(C)CC2=O)c2ccc(Br)s2)C(=O)C1` (stereo unspecified) the Potency was inconclusive: 35.5 µM [inhibitor, single point].
In the case of `Cc1csc(NC(=O)CSc2nnc(Cn3c(=O)sc4ccccc43)n2-c2ccccc2)n1`, the “ratio change, negative = inhibition” value is reported as inactive: -3.23%.
For `FC(F)(F)c1cccc(NC(=S)N2CCN(c3cccc(C(F)(F)F)c3)CC2)c1`, the Potency was inconclusive: 15.8 µM [fluorescent, single point].
For `O=C(CSc1nc2ccc(Cl)cc2[nH]1)Nc1ccc2c(c1)CCC2`, the ratio change, negative = inhibition was inconclusive: -25.9%.
For `Nc1c(C(=O)NCc2ccco2)c2nc3ccccc3nc2n1CCc1ccc(F)cc1`, the Potency was inconclusive: 35.5 µM [inhibitor, single point].
In the case of `CCOc1ccccc1NC(=O)c1ccc(F)c(S(=O)(=O)NCc2ccc3c(c2)OCO3)c1`, the “ratio change, negative = inhibition” value is reported as inactive: 11.4% [at 46 µM].
For `CNC(=O)/C(C#N)=C/c1c(N(Cc2ccccc2)Cc2ccccc2)nc2c(C)cccn2c1=O`, the Potency was inconclusive: 35.5 µM [fluorescent, single point].
With `COc1ccc(CNc2ncnc3onc(-c4ccc(F)cc4)c23)cc1` the ratio change, negative = inhibition was inconclusive: 5.48% [at 46 µM].
With `O=C(c1cc(-c2ccco2)on1)N1CCCc2ccccc21` the “ratio change, negative = inhibition” value was inactive: 7.99%.
In the case of `CC(=O)NC1=NN(C(C)=O)C(c2cccs2)S1` (stereo unspecified), the “ratio change, negative = inhibition” value is reported as inactive: 2.62%.
In the case of `COc1cccc(OC)c1C(=O)Nc1c(C)n(C)n(-c2ccccc2)c1=O`, the ratio change, negative = inhibition is reported as inconclusive: 0.863%.
For `NNC(=O)c1oc2ccccc2c1-n1cccc1`, the ratio change, negative = inhibition was inconclusive: -20.2% [at 46 µM].
With `COc1cccc(Cn2c(CNC(=O)c3cc([N+](=O)[O-])ccc3Cl)nc3cccnc32)c1` the ratio change, negative = inhibition was inconclusive: -18.9% [at 46 µM].
In the case of `CCNC(=O)C(Cc1ccccc1)NC(=O)OCc1ccccc1` (stereo unspecified), the ratio change, negative = inhibition is reported as inconclusive: 23.5% [at 46 µM].
In the case of `CCOC(=O)CN1C(=O)N[C@@H](c2ccccc2)[C@H](C(C)=O)[C@H]1C`, the ratio change, negative = inhibition is reported as inconclusive: 18.4% [at 9.22 µM].
In the case of `Cc1cccc(NC(=S)NNC(=O)c2ccc(O)cc2O)c1C`, the Potency is reported as inconclusive: 25.1 µM [inhibitor, single point].
For `CCOC(=O)c1cccnc1`, the ratio change, negative = inhibition was inconclusive: -19.6%.
With `Nc1ccc(N2CCN(c3ccc(F)cc3)CC2)cc1` the Potency was inconclusive: 7.08 µM [inhibitor, partial curve].
With `CCOC(=O)c1sc(NC(=O)c2ccncc2)c(C#N)c1C` the ratio change, negative = inhibition was inconclusive: -32.6%.
For `CN(C)CCOC(=O)COc1ccc(Cl)cc1`, the ratio change, negative = inhibition was inconclusive: -12.4%.
